# PubChem BioAssay AID504648 (National Center for Advancing Translational Sciences (NCATS), 2011)
# Hit rate of the full screen: of about 390,000 compounds, about 610 (0.16%) were called active. Inconclusive results, whose numbers are uncertain, are shown with a selection of clear calls. Calls follow the shape of the dose curve; as a rule, active = well fitted inhibition curve with a large enough effect; inconclusive = small, poorly fitted or top-dose-only effect, or effect the other way, or another doubt; inactive = no such curve, though single readings can be large or run the other way. A potency beside an inconclusive call is a rough fit, not a confirmed value.
# Test: Nrf2 qHTS screen for inhibitors: counterscreen for cytotoxicity
# Details: A549 ARE-Fluc cells, CellTiter-Fluor viability, 18-24 h; activity change, negative = cytotoxicity: at 46 µM (top of the series)
# Procedure, shortened: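 Cytotoxicity counterscreen: CellTiter-Fluor fluorescence was measured in A549 ARE_Fluc cells after 18-24 h of compound exposure in a concentration series. The subsequent BugLite luminescent read reports ARE-luciferase activity.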
# % is scaled to controls: 0 for no effect and ±100 for the full control effect; potency is read from the fitted curve at half-maximal effect.
SMILES,"activity change, negative = cytotoxicity",Potency
O=C(CSc1nnc(NC(=O)C2CC2)s1)NCc1ccc(F)cc1,inactive: -2.27%,–
CCCn1c(SCC(=O)Nc2sc(C)c(C)c2C#N)nnc1C(C)C,inactive: 1.56%,–
Cc1ccc(Cl)cc1-n1ncc2c(NCCCc3ccccc3)ncnc21,–,"inconclusive: 29.1 µM [falling, single point]"
C[C@@H](C[C@@H](O)[C@H](O)C(C)(C)O)[C@@H]1CC[C@]2(C)C3=CC[C@H]4C(C)(C)C(=O)CC[C@]4(C)[C@H]3CC[C@@]12C,–,"inconclusive: 20.6 µM [falling, single point]"
Cc1ccc(C2(c3ccc(C)cc3)CC2C(=O)Nc2ccc([N+](=O)[O-])cc2O)cc1 (stereo unspecified),–,"inconclusive: 29.1 µM [falling, single point]"
COc1ccc(-c2ccc(-c3nnn(CC(C)=O)n3)cc2)cc1,–,"inconclusive: 23.1 µM [falling, single point]"
CC1CCCC(C)N1C(=O)Cn1cc(/C=C2/C(=O)Nc3ccccc32)c2ccccc21 (stereo unspecified),–,active: 16.4 µM
S=C(NCCc1ccccc1)N1CCN(C23CC4CC(CC(C4)C2)C3)CC1,–,"inconclusive: 23.1 µM [falling, partial curve]"
N#CC1=C2N=C(N)c3ccccc3N2C2=C(C(=O)CCC2)C1c1cccc(Cl)c1 (stereo unspecified),–,"inconclusive: 29.1 µM [falling, single point]"
COC(=O)c1ccccc1NC(=S)NC(=O)c1ccccc1C,inactive: -3.31%,–
CCOC(=O)C1CCCN(c2nc3ccccc3nc2C(C#N)C(=O)OCCOC)C1 (stereo unspecified),–,"inconclusive: 20.6 µM [falling, partial curve, poor fit]"
CCOc1ccc(N2Nc3n[nH]c(N)c3N2)cc1,–,"inconclusive: 16.4 µM [falling, partial curve, poor fit]"
COc1cccc(N2CCc3c(C)nc4ccc(Cl)cc4c32)c1,–,"inconclusive: 23.1 µM [falling, single point]"
COc1ccc(-c2cc(-c3nnc(COC(=O)C4CC4)o3)c3ccccc3n2)cc1OC,inactive: -0.454%,–
CCN1CCN(Cc2ccc(NC(=O)Nc3ccc(SC)cc3)cc2)CC1,–,"inconclusive: 14.6 µM [falling, partial curve]"
Cc1cc(N=NC(=O)c2ccccc2O)c2ccccc2c1O,–,"inconclusive: 29.1 µM [falling, single point]"
Cc1cccc(OCC(=O)Nc2c(C(=O)N3CCN(c4ccccc4F)CC3)oc3ccccc23)c1,–,"inconclusive: 29.1 µM [falling, single point]"
O=C1C(Cl)=C(Nc2ccc3cn[nH]c3c2)C(=O)c2ccccc21,–,"inconclusive: 25.9 µM [falling, single point]"
O=C(/C=C\Nc1ccc2c(c1)OCO2)c1cccs1,–,"inconclusive: 9.2 µM [falling, partial curve]"
O=C(CCCN1C(=O)/C(=C/c2cccs2)SC1=S)NNC(=O)c1ccncc1,–,"inconclusive: 29.1 µM [falling, single point]"
Cc1ccc2onc(CC(=O)Nc3cccc(C(F)(F)F)c3)c2c1,–,"inconclusive: 8.2 µM [falling, partial curve, poor fit]"
O=C(Nc1ccccn1)c1ccc(Cl)c([N+](=O)[O-])c1,inactive: -10.7%,–

# 4 entries already listed, arranged by formula weight, rising.
SMILES,"activity change, negative = cytotoxicity",Potency
O=C(Nc1ccccn1)c1ccc(Cl)c([N+](=O)[O-])c1,inactive: -10.7%,–
COc1cccc(N2CCc3c(C)nc4ccc(Cl)cc4c32)c1,–,"inconclusive: 23.1 µM [falling, single point]"
N#CC1=C2N=C(N)c3ccccc3N2C2=C(C(=O)CCC2)C1c1cccc(Cl)c1 (stereo unspecified),–,"inconclusive: 29.1 µM [falling, single point]"
Cc1ccc(C2(c3ccc(C)cc3)CC2C(=O)Nc2ccc([N+](=O)[O-])cc2O)cc1 (stereo unspecified),–,"inconclusive: 29.1 µM [falling, single point]"

# (further entries)

SMILES,"activity change, negative = cytotoxicity",Potency
CCc1cccc(NS(=O)(=O)c2ccc3c(c2)n(C)c(=O)c(=O)n3C)c1,inactive: 13.3%,–
COc1ccc(-c2ccoc2)cc1[C@H]1[C@H]2C=CC[C@@H](C)[C@@H]2C(=O)N1Cc1ccccc1,–,"inconclusive: 29.1 µM [falling, single point]"
CC1=C(C(=O)Nc2ccc(C(=O)NCCCN3CCCCC3)cc2)SCCO1,inactive: -0.514%,–
CCOC(=O)c1cc2c(=O)n3cccc(C)c3nc2n(Cc2ccco2)c1=NC(=O)c1cccnc1,–,"inconclusive: 8.2 µM [activator, partial curve, poor fit]"
CCN(CC)c1ccc(/C=N/NC(=O)Nc2ccccc2)cc1,–,"inconclusive: 18.4 µM [falling, partial curve, poor fit]"
COc1cccc(-n2c(SCC(N)=O)nnc2-c2ccco2)c1,inactive: -1.26%,–
O=C(CNC(=O)OCc1ccccc1)Oc1ccc2ccc(=O)oc2c1,inactive: 9.75%,–
Cc1cccc(C(=O)NC(=S)NNC(=O)COc2c(C)cccc2C)c1,inactive: -0.762%,–
CCOC(=O)C1CCN(c2c(C(=O)c3ccc(OC)cc3)cnc3ccccc23)CC1,–,"inconclusive: 16.4 µM [falling, single point]"
COc1ccc(CCNC(=O)c2nc(SCc3ccccc3F)ncc2Cl)cc1OC,inactive: -12.3%,–
CCOC(=O)c1sc(N)c(C#N)c1CSc1nnc(C2CC2)n1N,inactive: -4.47%,–
CCOC(=O)c1c(NC(=O)C2=C(C)NC(=S)NC2c2ccccc2C(F)(F)F)sc(C)c1C (stereo unspecified),–,"inconclusive: 23.1 µM [falling, partial curve]"
Cc1cc(C)cc(-n2c(C)cc(C(=O)C(=O)Nc3nnc(C)s3)c2C)c1,–,"inconclusive: 20.6 µM [falling, partial curve, poor fit]"
CCOC(=O)[C@@H]1[C@H]2COc3ccccc3[C@H]2N2C(=O)N(c3ccc(OC)cc3)C(=O)[C@]12C,inactive: -17.1%,–
CC(=O)c1cc(C(C)=O)c(C)nc1C,–,"inconclusive: 3.26 µM [falling, partial curve, poor fit]"
CCCn1c(=S)[nH]c2cc(C(=O)N3CCCC(C(=O)OCC)C3)ccc2c1=O (stereo unspecified),–,"inconclusive: 4.11 µM [falling, single point]"
COc1cc(OC)cc(-c2oc(=O)c3cc(OC)c(OC)cc3c2C#CCCO)c1,inactive: -0.663%,–
CCS(=O)(=O)Nc1ccc(C2=NN(C(=O)c3ccco3)C(c3cccs3)C2)cc1 (stereo unspecified),–,"inconclusive: 18.4 µM [falling, partial curve, poor fit]"
CC(=O)Nc1ccc(N2CCN(Cc3ccccc3F)CC2)cc1,–,"inconclusive: 1.16 µM [activator, full curve, poor fit]"
S=c1[nH]ncn1-c1ccccn1,–,"inconclusive: 25.9 µM [activator, partial curve, poor fit]"
Cn1c(SCC(=O)NCc2ccco2)nc2ccccc2c1=O,–,"inconclusive: 5.8 µM [activator, partial curve, poor fit]"
COc1ccc(-c2cc(-c3c(O)c(OC)c4occc4c3OC)[nH]n2)cc1,–,"inconclusive: 23.1 µM [falling, single point]"

SMILES,"activity change, negative = cytotoxicity",Potency
CC(C)N(C(=O)[C@H]1C[C@H](CC(=O)NCC23CC4CC(CC(C4)C2)C3)C(=O)N2CCc3c([nH]c4ccc(Cl)cc34)[C@]12C)C(C)C,–,"inconclusive: 29.1 µM [falling, single point]"
CCC1Oc2ccc(C)cc2N(Cc2cccc(C)c2)C1=O (stereo unspecified),–,"inconclusive: 10.3 µM [activator, partial curve, poor fit]"
CCN(CC)S(=O)(=O)c1ccc(NC(=O)c2ccc(N(C)S(C)(=O)=O)cc2)cc1,–,"inconclusive: 10.3 µM [falling, partial curve, poor fit]"
COCCCn1c(-c2ccccc2Cl)n[nH]c1=S,inactive: -7.74%,–
O=C(NCC(=O)N(c1cccc(F)c1)C(C(=O)NC1CCCC1)c1cccnc1)c1cccs1 (stereo unspecified),–,"inconclusive: 8.2 µM [activator, partial curve, poor fit]"
COc1ccc(-c2csc(NC(=O)c3ccccc3NS(=O)(=O)c3ccc(C)cc3)n2)cc1,–,"inconclusive: 29.1 µM [falling, single point]"
O=C1C=CC(=O)N1CCNc1ncc(C(F)(F)F)cc1Cl,inactive: -3.9%,–
O=C(Nc1ccc2c(c1)OCO2)c1cc(-c2ccncc2)nc2ccccc12,–,"inconclusive: 32.6 µM [falling, single point]"
COc1ccc(NC(=O)Cn2c(=O)n(Cc3ccc4c(c3)OCO4)c(=O)c3ccc(C(=O)NC4CCCCC4)cc32)cc1,inactive: -2.25%,–
COc1ccc(-c2cn3nc(N4CCCC(C(=O)Nc5ccccc5OC)C4)sc3n2)cc1 (stereo unspecified),inactive: 3.68%,–
O=C(c1ccc2c(c1)OCO2)N(Cc1ccco1)C1(C(=O)NC2CCCCC2)CCCCC1,–,"inconclusive: 29.1 µM [falling, single point]"
C[C@]12c3[nH]c4ccc(Cl)cc4c3CCN1C(=O)[C@@H](CC(=O)NCc1cccc(C(F)(F)F)c1)C[C@@H]2C(=O)N1CCCCC1,–,"inconclusive: 23.1 µM [falling, single point]"
CCC(=O)c1ccc(OCc2ccc(C(=O)c3ccccc3)cc2)cc1,–,"inconclusive: 20.6 µM [falling, partial curve, poor fit]"
CCN(CC)C(=O)[C@H]1C[C@H](CC(=O)NCCCN(C)C)C(=O)N2CCc3c([nH]c4ccc(Cl)cc34)[C@]12C,inactive: -21.5%,–
CCCCCn1c(=O)[nH]c2cc(C(=O)NCCN3CCCCC3C)ccc2c1=O (stereo unspecified),inactive: 1.5%,–
CCOc1ccc(NC(=O)c2c(Nc3ccccc3C)sc(C(=O)c3ccc(Cl)cc3)c2N)cc1,–,"inconclusive: 25.9 µM [falling, single point]"
CN1CCN(S(=O)(=O)c2cccc(C(=O)Nc3cc(Cl)ccc3N3CCOCC3)c2)CC1,inactive: 0.198%,–
O=C(O)CCCCN1C(=O)/C(=C\c2ccc(OCc3ccccc3)c(OCc3ccccc3)c2)SC1=S,–,"inconclusive: 23.1 µM [falling, single point]"
CCCN1CCN(c2cc3c(cc2F)c(=O)c(S(=O)(=O)c2ccc(CC)cc2)cn3CC)CC1,–,"inconclusive: 23.1 µM [falling, partial curve]"
Nc1ccc(C(=O)OCCCc2nc3ccccc3[nH]2)cc1,inactive: 4.05%,–
CCCCC(NC(=O)CCc1c(C)c2cc3c4c(oc3c(C)c2oc1=O)CCCC4)C(=O)O (stereo unspecified),inactive: 4.01%,–
CC1Cn2c(C(=O)NCc3cccc(Br)c3)cc3cccc(c32)S1 (stereo unspecified),–,"inconclusive: 13 µM [activator, partial curve, poor fit]"
